No constants are given. Whether binding was seen depends on the method and setting. For some assays here: Binding seen in cells or lysates may run through a third protein. For some assays here: Sequences can lack the tags named with a protein.
B1: FLAG-TNK1 (wild type) (enzyme, UniProt Q13470 1-666)
chain: MLPEAGSLWLLKLLRDIQLAQFYWPILEELNVTRPEHFDFVKPEDLDGIGMGRPAQRRLSEALKRLRSGPKSKNWVYKILGGFAPEHKEPTLPSDSPRHLPEPEGGLKCLIPEGAVCRGELLGSGCFGVVHRGLWTLPSGKSVPVAVKSLRVGPEGPMGTELGDFLREVSVMMNLEHPHVLRLHGLVLGQPLQMVMELAPLGSLHARLTAPAPTPPLLVALLCLFLRQLAGAMAYLGARGLVHRDLATRNLLLASPRTIKVADFGLVRPLGGARGRYVMGGPRPIPYAWCAPESLRHGAFSSASDVWMFGVTLWEMFSGGEEPWAGVPPYLILQRLEDRARLPRPPLCSRALYSLALRCWAPHPADRPSFSHLEGLLQEAGPSEACCVRDVTEPGALRMETGDPITVIEGSSSFHSPDSTIWKGQNGRTFKVGSFPASAVTLADAGGLPATRPVHRGTPARGDQHPGSIDGDRKKANLWDAPPARGQRRNMPLERMKGISRSLESVLSLGPRPTGGGSSPPEIRQARAVPQGPPGLPPRPPLSSSSPQPSQPSRERLPWPKRKPPHNHPMGMPGARKAAALSGGLLSDPELQRKIMEVELSVHGVTHQECQTALGATGGDVVSAIRNLKVDQLFHLSSRSRADCWRILEHYQWDLSAASRYVLARP
B2: Cy5-TNK1 peptide (non-phosphorylated) (peptide)
peptide: CRMKGISRSLESVLSLGP
modifications: Cy5 maleimide on the N-terminal cysteine; C-terminal amide

Key:
[1] = biological target: phospho-binding defective 14-3-3 (K49Q); test: co-IP; co-IP of TNK1 with 14-3-3 (K49Q), Supplementary Fig. 2f; which partner was precipitated is not told
[2] = biological target: His-14-3-3ζ; test: FRET or BRET; His-14-3-3ζ 12 nM with Europium-anti-His antibody 0.75 nM and Cy5 peptides at 10, 5 and 1 µM; 20 mM Tris pH 7.4, 0.1% Nonidet P40, 50 mM NaCl, BSA; 2 h at room temperature; 384-well plate; both purified

Binder	binding [1]	binding [2]
B1	no binding	
B2		no binding (tested: 10 µM)
